No constants are given. Whether binding was seen depends on the method and setting. Some binding calls cover weakened binding; strength is not graded here.
Legend:
[1] = target: murine RAGE on cells and tissue (murine) (UniProt Q62151); test: flow cytometry on murine 4T1 cells
[2] = target: murine RAGE on cells and tissue (murine) (UniProt Q62151); test: flow cytometry on murine 4T1 cells, 120 nM
[3] = target: human cell surface RAGE on tumor cells (human) (UniProt Q15109); test: flow cytometry on human tumor cell lines
[4] = target: human cell surface RAGE on tumor cells (human) (UniProt Q15109); test: flow cytometry on MDA-MB-453, MDA-MB-468 and N87 cells, 120 nM

Chains of the proteins cited; added tags and fusions are not shown. Residues count along the entry.
UniProt Q62151, residues 23-402: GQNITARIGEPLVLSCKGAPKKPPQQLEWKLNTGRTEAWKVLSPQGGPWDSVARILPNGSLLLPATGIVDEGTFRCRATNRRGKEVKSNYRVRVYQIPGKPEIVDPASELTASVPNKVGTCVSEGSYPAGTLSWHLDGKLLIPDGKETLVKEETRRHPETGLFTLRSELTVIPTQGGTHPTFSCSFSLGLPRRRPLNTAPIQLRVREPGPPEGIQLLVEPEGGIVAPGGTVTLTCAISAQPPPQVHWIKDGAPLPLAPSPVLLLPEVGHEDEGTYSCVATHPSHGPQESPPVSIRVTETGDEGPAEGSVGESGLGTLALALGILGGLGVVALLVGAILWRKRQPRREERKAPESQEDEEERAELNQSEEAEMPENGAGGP
UniProt Q15109, residues 23-404: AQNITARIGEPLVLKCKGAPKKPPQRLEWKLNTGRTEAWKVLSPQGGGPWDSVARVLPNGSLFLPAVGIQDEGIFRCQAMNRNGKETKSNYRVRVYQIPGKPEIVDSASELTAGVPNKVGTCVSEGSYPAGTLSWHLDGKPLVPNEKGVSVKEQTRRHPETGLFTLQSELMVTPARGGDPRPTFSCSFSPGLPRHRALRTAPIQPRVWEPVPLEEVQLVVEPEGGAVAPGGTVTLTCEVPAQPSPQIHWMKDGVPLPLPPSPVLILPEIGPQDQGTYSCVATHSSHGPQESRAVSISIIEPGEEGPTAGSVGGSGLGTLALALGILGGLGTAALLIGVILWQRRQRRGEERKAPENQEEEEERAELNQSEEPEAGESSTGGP

- binding [1]: binds
- binding [2]: binds
- binding [3]: binds
- binding [4]: binds
B1: rabbit B2 mAb (antibody, V domains shown)
VH: QSVKESEGGLFKPTDTLTLTCTVSGFTISSYDMSWVRQAPGKGLEWIGAIDSSGSAHYASWARSRSTITRNTNLNTVTLKMTSLTAADTATYFCWNANIWGPGTLVTVSS
VL: AQVLTQTASPVSAAVGSTVTINCQASQNVYDNNHLSWYQQKRGQPPKLLIYYASALASGVSSRFKGSGSGTQFTLTINDVQCDDAATYYCLGSYDCSADCFAFGGGTEVVV
notes: Rabbit monoclonal antibody from a hybridoma; also called B2 mAbs; rabbit mAb B2

— patent US20220396618A1 (RESEARCH FOUNDATION FOR THE STATE UNIVERSITY OF NEW YORK, published 2022)
